Entries after “also recorded” stand apart in the source; their conditions may differ. At least one peptide structure holds a part that was inferred or is arguable (an end, a ring closure or a residue). Peptide text beside a SMILES is read from it.
Columns and labels:
Bitis caudalis venom = assay: Cross affinity ELISA with JB006 expressing phage clone; assay type: binding
Myotoxin-II [1] = biological target: T1, Myotoxin-II (Bothrops asper, UniProt P24605)
Myotoxin-II [2] = biological target: T1, Myotoxin-II; conditions: in vivo
Myotoxin-II [3] = biological target: T1, Myotoxin-II; assay type: binding
Lachesis muta muta venom = assay: Cross affinity ELISA with JB006 expressing phage clone; assay type: binding
[4] = system: Atropoides nummifer mexicanus venom; assay: as above; assay type: binding
[5] = system: Dendroaspis polyepis venom; assay: as above; assay type: binding

The chains behind the UniProt entries cited, without tags or fusion partners. Residues count along the entry.
UniProt P24605, 17-137 limits assumed: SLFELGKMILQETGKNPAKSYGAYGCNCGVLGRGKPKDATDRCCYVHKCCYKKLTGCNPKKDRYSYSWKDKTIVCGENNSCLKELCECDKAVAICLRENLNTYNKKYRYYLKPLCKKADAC

SMILES: CC(C)[C@H](NC(=O)[C@H](Cc1c[nH]c2ccccc12)NC(=O)[C@H](Cc1c[nH]cn1)NC(=O)[C@@H](N)CC(=O)O)C(=O)N[C@@H](Cc1c[nH]c2ccccc12)C(=O)NCC(=O)N[C@@H](Cc1c[nH]c2ccccc12)C(=O)N[C@@H](CC(N)=O)C(=O)N[C@@H](Cc1ccc(O)cc1)C(=O)N[C@@H](CCC(N)=O)C(=O)N[C@@H](Cc1ccc(O)cc1)C(=O)N[C@@H](CCC(N)=O)C(=O)N1CCC[C@H]1C(=O)N[C@@H](CCC(N)=O)C(=O)N[C@@H](CCC(=O)O)C(=O)N[C@@H](Cc1c[nH]c2ccccc12)C(=O)N[C@@H](Cc1c[nH]cn1)C(=O)N[C@H](C(=O)N[C@@H](CCC(=O)O)C(=O)N[C@@H](CO)C(=O)O)[C@@H](C)O [Clone 1.9] (H-DHWVWGWNYQYQPQEWHTES-OH)
- ELISA signal/control ratio (Bitis caudalis venom): > 4
- Neutralization of myotoxin II toxicity in cells (Myotoxin-II [1]): almost completely neutralizes myotoxin II toxicity in cells
- Neutralization of myotoxicity of Myotoxin II (plasma CK activity) (Myotoxin-II [2]): neutralized the myotoxicity of Myotoxin II; also recorded: almost completely neutralizes myotoxin II toxicity in a mouse model; also recorded: neutralized myotoxin II in a mouse model
- Binding to Myotoxin-II in FP assay (Myotoxin-II [3]): confirmed
- ELISA signal/control ratio (Lachesis muta muta venom): > 4
- ELISA signal/control ratio [4]: > 4
- ELISA signal/control ratio [5]: > 4
